Experimental data reported in patent US20100087491A1, “POLYCYCLIC COMPOUNDS” (priority 2006, published 2010).
Some of these results come from one statement about several compounds together.

The chains behind the UniProt entries cited, without tags or fusion partners. Where a name states a change or a piece, a line headed by the entry shows the natural chain unless it says otherwise.
UniProt Q9H228: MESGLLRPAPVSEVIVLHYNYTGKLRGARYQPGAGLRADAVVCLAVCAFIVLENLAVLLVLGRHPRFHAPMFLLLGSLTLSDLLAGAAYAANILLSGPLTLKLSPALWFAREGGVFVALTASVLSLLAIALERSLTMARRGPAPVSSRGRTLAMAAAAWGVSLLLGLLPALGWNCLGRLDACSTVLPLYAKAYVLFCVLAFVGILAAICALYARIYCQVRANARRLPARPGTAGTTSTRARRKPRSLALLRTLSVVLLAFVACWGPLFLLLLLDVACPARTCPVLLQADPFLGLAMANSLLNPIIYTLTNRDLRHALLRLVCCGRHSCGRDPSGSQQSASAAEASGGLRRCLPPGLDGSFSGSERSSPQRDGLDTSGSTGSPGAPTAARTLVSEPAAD
UniProt Q99500: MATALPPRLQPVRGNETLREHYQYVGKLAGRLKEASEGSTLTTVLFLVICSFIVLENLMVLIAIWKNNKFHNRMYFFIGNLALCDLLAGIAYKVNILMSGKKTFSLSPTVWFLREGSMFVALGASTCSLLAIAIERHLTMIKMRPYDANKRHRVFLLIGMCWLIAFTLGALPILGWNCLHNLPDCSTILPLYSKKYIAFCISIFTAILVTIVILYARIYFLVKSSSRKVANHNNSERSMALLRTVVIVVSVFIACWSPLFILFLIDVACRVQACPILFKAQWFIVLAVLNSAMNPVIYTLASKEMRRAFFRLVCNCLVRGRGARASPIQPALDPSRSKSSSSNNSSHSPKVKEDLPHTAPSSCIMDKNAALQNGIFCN

How the values were obtained:
S1P-5 receptor = target: T1, S1P-5 receptor (Homo sapiens, UniProt Q9H228); assay: S1P-5 GTP[γ-35S] binding assay, membranes from CHO cells; type: biochemical; conditions: GTP[γ-35S] binding assays
T1 construct: c-myc (or untagged); expressed in transfected cells

S1P3 receptor = target: T2, S1P3 receptor (Homo sapiens, UniProt Q99500); assay: S1P-3 GTP[γ-35S] binding assay, membranes from CHO cells; type: biochemical; conditions: GTP[γ-35S] binding assays
T2 construct: c-myc (or untagged); expressed in transfected cells

Compound	selectivity for S1P1 receptor compared to S1P-5 receptor (S1P-5 receptor)	selectivity for S1P1 receptor compared to S1P3 receptor (S1P3 receptor)
CNCc1ccc(-c2noc(-c3ccc(-c4ccccc4)c(C(F)(F)F)c3)n2)cc1 [Example 44]	at least 20 fold	at least 20 fold
CCOc1ccc(-c2nc(-c3ccc(CN)cc3)no2)cc1C(F)(F)F [Example 21]	at least 20 fold	at least 20 fold
CCc1cc(-c2noc(-c3ccc(OC(C)C)c(-c4ccccc4)c3)n2)ccc1S(N)(=O)=O [Example 105]	at least 20 fold	at least 20 fold
